Laboratory results published in PubChem BioAssay AID1508600 (Functional Genomics Laboratory (NCATS/FGL), 2020).
In all, about 53,000 sequences went through this assay and about 3,700 (7%) were called active.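 How the source made its calls: active means gene knockdowns whose robust z-score for IL-1 alpha signal is at least 2 or at most -2, so actives lie on both sides; inactive means the rest.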 Some of the results follow.

Experiment: Components of the Cytosolic LPS Sensing Pathway: Gene Identification via Genome-wide siRNA Screen;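 further: robust z of the log signal after scaling to non-targeting control siRNA wells of the plate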
Details: RAW264.7 macrophages, IL-1a HTRF, actives lie on both sides, screened at 100 nM (by protocol), cells primed 5 h with Pam3CSK4 first
Outline: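 IL-1a HTRF of supernatants after 24 hour LipidA transfection of Pam3CSK4-primed (5 hours) RAW264.7 cells, 48h post-siRNA transfection (100 nM). Scores: percent of plate negative-control median, then log-based robust z-score.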

z-score, inactive:
GGAAAUAAUAUUCCUGGGATT against Ino80 -0.911
GGGAGAAGAUGUCAACCGGTT against Mtpn -0.0228
CGAGGUCUCAAUUACAUUATT against Pcolce2 0.188
GGAAUUCAUACCCUUGUUGTT against B3gnt5 -0.486
GGGAUUGGGACUGUUUUUGTT against Atp5g2 1.31
GCCAAUAAGAACAACGAUGTT against Des 0.732
GGUGGACAAGACUAAAACATT against Podxl -0.253
GGGACCUUUCCUGACCUAUTT against Ppdpf -0.362
CAAUAAUGAAUCCACGGUATT against Olfr728 -0.0469
GGUGUCCAGAUUUACCUGUTT against Olfr429 -0.0842
GGAAAGUCAGGAUGAAUAUTT against Cst9 0.0511
GCCAUUACUGAUCAAUCAGTT against Zfp958 -0.726
GGGCUAGAGGAAAACGAAATT against Crot 1.64
GGAAAAAUGGCAACUUCAATT against Dock3 0.766
CGAAAAGGCAAAGUAUGAATT against Hmgb4 -1.07
GGAUUAGAGGCUAAGGCAGTT against Ankrd24 -0.0277
GGCUUCAAGCAAGUAAAGGTT against Cars -0.479
CCAUUUGAACAGUCCGUCUTT against Nhlrc3 -1.09
GGACCAUGGAUAUUUAAAGTT against Mafk -0.297
GGCUGUUUAGAUGUAAUGUTT against Nek1 -0.337
CCUUAUCCAGACAUAGAUUTT against Zfp940 -1.17
GCACAUCUCAGCCUGAAUCTT against Cln6 0.323
GGAGUACAGUGUGAGCAGATT against Dok4 -0.7
GGUAACAGUUCAACAGUAUTT against Olfr1039 -1.13
GCAGCUUAAGUUGCCCAAGTT against Aatk -0.27
GGCUGAGGAUAUGAUGUUATT against Zic3 0.272
GGUCUACGUUAUUAUUACCTT against Etv2 -0.537
GCUACAUGGAAAGAUACGGTT against Prokr2 0.723
GGCUCUGUAGCUAGCAAUATT against C77080 0.168
GGUGGUUAGAUUGUCAUGCTT against Vmn1r171 0.18
GUCAUCUUGUUCCAUCUGATT against Olfr1269 -1.12
CCUGGAUGUAGACUUCGCATT against Slc6a7 0.273
GGGAGCUACUACCUAUGAUTT against Dio2 -0.28
GGAAACUACCUACUACCCGTT against Tedc2 0.192
GGGCUUCUAUUUGUUCCACTT against Lrfn5 1.16
GCCCGUUCCUUUUAUGUAUTT against Klf3 -1.24
CCACUCUAUUUGUUUGAAATT against Adgb -0.476
GGAAAUUUCAAGAGCAAGATT against Rras2 -0.0864
GGUACAGGAUAAGCAAAUATT against Erp44 -0.545
GGGAACCUCCUUGUGAACATT against Nlk -0.0438
GCACUAUGACUACAAGAGUTT against Olfr1457 -0.965
CCGACUAAAGUGUUUAAUUTT against Pfkfb1 0.366
CCUGAUGUAACUAUAAACATT against Adam32 -0.107
GCAGGAUCCUUAAUUUGGCTT against Nlrp4c 1.06
GCUCUACAGAUGCCACCACTT against Mlycd -0.0476
GCAAUAAAUGGGAACUUACTT against Lrpprc 0.139
GGAAUGAGAUGUUUUGAGUTT against Ostf1 -1.4
GCUACAUGGCUAGAAUAGATT against Eif2s2 -0.697
GGUGUGUCUGUGCUUAUUUTT against Olfr780 0.343
GGAAAGAAACUACUUCAUCTT against Vash1 -0.214
GGGUAAUGCAAAGAAAACATT against Dlc1 -0.83
GGAAGAGAGAGAAUUACUATT against Luc7l3 -1.17
GGGACCUGAGGAAAACUGUTT against Ctdsp2 0.49
CCUUUGGUAGAGACCUUUUTT against Elp2 -0.31
CCUUUACACCACUCUAUUUTT against Adgb -0.795
GCUACAUGUACCAGACAAATT against Hspb7 0.0612
GGCGUGAAAAUAGGAGAAUTT against Extl2 -1.77
GCAAGGCGGAGAGUAAAAGTT against Lypd11 -1.51
CGAGAUUUUUCAUGAUGUGTT against Slc4a8 -0.0121
CCAAACUAGGAGACAUAAUTT against Dhx38 -0.238
GCACCCUCUUUCAAGAAACTT against Olfr331 -0.777
CCUUUUGAAACGUACAGCGTT against Gpr182 1.12
GGUGGUGGUGUUCCUCAAGTT against Glrx5 -0.883
GGGUGAUCCCUGAAUAUUGTT against Arcn1 -0.863
GGACAAGGCAAAGGCCUAUTT against Phka1 1.94
GGUCAUCUUCCGAUACUGUTT against Pspn 0.936
GCUAUCCUCAAUUGCACACTT against Atxn3 1.49
AUGAUUCCCUACCAGAUCGTT against Pfdn4 1.36
UCACUGUACCAUUCAUAUGTT against Olfr50 1.17
CGUAUUUGUGGCAUAUUAGTT against Olfr1183 -0.128
GGAUAUCCUUCUGUCCAGUTT against Tyr -0.977
GGUUGGGAUACAUUCAACGTT against Slc25a37 -0.297
GGAUCUAUGGGUAUCCUGCTT against Adam1a -1.8
GGAAAUUGCUCAAAAAAGGTT against Asb3 0.725
GCAAGAUUCAUUGUCACUGTT against Ezr -0.432
GGUGUAGGCUCCCUGACAUTT against C130046B21Rik 0.0693
GGUACUCCCGAUCUGCUAUTT against Rpl6 1.15
GGGAAACUUCUUCAUGGGUTT against Dazap2 0.0384
GCAUAUGAACCUAAAACCCTT against Spred3 -1.75
GGUGACUUUUUGGUACAGATT against Mthfr 0.558
GGAAGGAGAACAUUCCUUUTT against Ces1d -0.198
GGUGCAAGGUUCUUGUGUUTT against Mcmdc2 -1.48
CGAACCCUGAAAGAACAUATT against Slc5a12 -0.971
GCACUCAGCUAGGUGAAGATT against Hnrnpul1 -0.186
GCUAUAAGCUCAGGUUUGUTT against Osbpl10 0.115
GGAGAUAUCCUUUUGCUCUTT against Tbc1d1 -0.419
GGUGUAACUGGGCUGCAUGTT against Avpi1 0.269
GUUCGCUGAACACGUCUUCTT against Hpcal1 0.549
GCUUGAGUAGUGCAGAAACTT against Jmjd1c -1.15
CGAAAAGAUAAGCCCUUAATT against Mphosph10 0.776
CCUUGCUCAAUGUUUUGGATT against Obscn 1.73
GCAUCAAGUCUGAGCGACUTT against Mef2b -0.347
GGAUCUCUACUUCUAUAAGTT against Kif27 -0.0725
GGAUGUGUUAUCGGUGCUCTT against Mup21 -0.303
CCAAGUUUGUUUCAGACGGTT against Btbd6 -0.366
GCAAGUCGUGAAACUAUAATT against Yeats4 0.278
GGCCUUUCAAGAAGCCAAATT against Tprn -0.0144
GGCUCUAGGUACUUGUGGUTT against Olfr617 -0.626
GCUGCCCUUCGAUUUCUGUTT against Olfr550 0.123
GGCCGAUCCUCUUUUAAAUTT against Tafa4 -1.61
GGAGAUACCCAAUCUCAGATT against Tcaf3 -0.438

Random excerpt: three entries already listed.
z-score, inactive:
GGGCUUCUAUUUGUUCCACTT against Lrfn5 1.16
GCCAUUACUGAUCAAUCAGTT against Zfp958 -0.726
GGGAGAAGAUGUCAACCGGTT against Mtpn -0.0228

Taken from the results shown (three entries):
z-score, inactive:
GGUGGUGGUGUUCCUCAAGTT against Glrx5 -0.883
GGGUGAUCCCUGAAUAUUGTT against Arcn1 -0.863
GGACAAGGCAAAGGCCUAUTT against Phka1 1.94

Next part.

z-score, active:
GCAGGUCUAAAACUCUCAUTT against Sfmbt1 2.38
GCUUCCCGCUAUGAGUUCATT against Shisa7 2.24
GCACGAAGAACCACACAAGTT against Sp110 2.37
GGUUUAUGGGACAGUUUUUTT against Plk2 5.58
GGAACCAAGGAUGUGAAAGTT against Rab13 -2.17
GGGUACAAGCUUAUCAAUATT against Trpm6 4.91
